Test results published in US20250302041A1, “PLANT DISEASE CONTROL METHOD” (priority 2022, published 2025).
Some entries share one result that the patent states for a list of compounds. For at least one compound, name, drawing or mass did not settle the structure.

Assays:
[1] = test system: Phakopsora pachyrhizi; assay: Control test against soybean rust, foliar spray on potted soybean before inoculation (Test Examples 11, 11-2); assay type: in vivo; conditions: inoculation after 2 to 5 days
[2] = test system: Phakopsora pachyrhizi having an amino acid substitution of F129L on mitochondrial cytochrome b protein; assay: Control test against soybean rust, soybean leaf disk (Test Examples 7, 7-2); assay type: in vivo; conditions: F129L strain
[3] = 50 ppm, 10 μL per soybean leaf disk, inoculation after 1 day
[4] = 200 ppm, soybean leaf disk according to Test Example 7

Structure (SMILES) | lesion area in treated soybean compared to the lesion area in an untreated soybean ([1]; 200 ppm foliar spray) [%] | lesion area in treated leaf disk compared to the lesion areas in an untreated leaf disk [2, 3] [%] | lesion area in treated leaf disk compared to the lesion areas in an untreated leaf disk [2, 4] [%] | lesion area in treated soybean compared to the lesion area in an untreated soybean ([1]; 50 ppm foliar spray) [%]
CCSc1cccc(-c2ccc(Cl)cc2)n1 [compound 2] | ≤ 30 |  |  | 
CCCSc1cc(-c2ccc(C)c(F)c2)ccn1 [compound 3] | ≤ 30 | ≤ 30 |  | 
CCCSc1ccnc(-c2ccc(C)c(F)c2)c1 [compound 4] | ≤ 30 | ≤ 30 |  | 
CCCSc1cncc(-c2ccc(C)c(F)c2)n1 [compound 8] | ≤ 30 | ≤ 30 |  | 
CCS(=O)(=O)c1cc(-c2ccc(C)c(F)c2)cnc1Cl [compound 9] | ≤ 30 | ≤ 30 |  | 
CCC[S+]([O-])c1ccnc(-c2ccc(C)c(F)c2)c1 (stereo not shown) [compound 11] | ≤ 30 | ≤ 30 |  | 
CCCSc1cc(-c2ccc(C)c(F)c2)cnn1 [compound 67] | ≤ 30 |  | ≤ 30 | 
CCS(=O)(=O)c1cncc(-c2ccc(C)c(Cl)c2)c1 [compound 70] | ≤ 30 |  | ≤ 30 | 
CCS(=O)(=O)c1cncc(-c2ccc(Cl)c(C)c2)c1 [compound 71] | ≤ 30 |  | ≤ 30 | 
CCS(=O)(=O)c1cncc(-c2ccc(Cl)c(Cl)c2)c1 [compound 72] | ≤ 30 |  | ≤ 30 | 
CCS(=O)(=O)c1cncc(-c2ccc(F)c(F)c2)c1 [compound 73] | ≤ 30 |  | ≤ 30 | 
CCS(=O)(=O)c1cncc(-c2ccc(C)c(F)c2)c1 [compound 74] | ≤ 30 |  | ≤ 30 | 
CCS(=O)(=O)c1cncc(-c2ccc(C)c(C)c2)c1 [compound 75] | ≤ 30 |  | ≤ 30 | 
CCS(=O)(=O)c1cncc(-c2cc(F)c(F)c(F)c2)c1 [compound 76] | ≤ 30 |  | ≤ 30 | 
CCS(=O)(=O)c1cncc(-c2ccccc2F)c1 [compound 77] | ≤ 30 |  | ≤ 30 | 
CCS(=O)(=O)c1cncc(-c2ccc(Cl)cc2)c1 [compound 78] | ≤ 30 |  | ≤ 30 | 
CCS(=O)(=O)c1cncc(-c2ccc(C)cc2)c1 [compound 79] | ≤ 30 |  | ≤ 30 | 
CCS(=O)(=O)c1cncc(-c2ccc(F)c(C)c2)c1 [compound 80] | ≤ 30 |  | ≤ 30 | 
CCS(=O)(=O)c1cncc(-c2cccc(Cl)c2)c1 [compound 82] | ≤ 30 |  | ≤ 30 | 

Structure (SMILES) | lesion area in treated soybean compared to the lesion area in an untreated soybean ([1]; 200 ppm foliar spray) [%] | lesion area in treated leaf disk compared to the lesion areas in an untreated leaf disk [2, 3] [%] | lesion area in treated leaf disk compared to the lesion areas in an untreated leaf disk [2, 4] [%] | lesion area in treated soybean compared to the lesion area in an untreated soybean ([1]; 50 ppm foliar spray) [%]
CCS(=O)(=O)c1cncc(-c2ccc(OC)cc2)c1 [compound 83] | ≤ 30 |  | ≤ 30 | 
CCS(=O)(=O)c1cncc(-c2cccc([N+](=O)[O-])c2)c1 [compound 84] | ≤ 30 |  |  | 
CCS(=O)(=O)c1cncc(-c2ccccc2C)c1 [compound 85] | ≤ 30 |  | ≤ 30 | 
CCS(=O)(=O)c1cncc(-c2ccc3c(c2)CCC3)c1 [compound 87] | ≤ 30 |  | ≤ 30 | 
CCS(=O)(=O)c1cncc(-c2cccc(C)c2)c1 [compound 88] | ≤ 30 |  | ≤ 30 | 
CCS(=O)(=O)c1cncc(-c2ccccc2Cl)c1 [compound 90] | ≤ 30 |  | ≤ 30 | 
CCc1ccc(-c2cncc(S(=O)(=O)CC)c2)cc1 [compound 94] | ≤ 30 |  | ≤ 30 | 
CCS(=O)(=O)c1cncc(-c2cc(F)c(C)c(F)c2)c1 [compound 96] | ≤ 30 |  | ≤ 30 | 
CCS(=O)(=O)c1cncc(-c2cccc(N(C)C)c2)c1 [compound 98] | ≤ 30 |  | ≤ 30 | 
CCCS(=O)(=O)c1cncc(-c2ccc(C)cc2)c1 [compound 100] |  |  | ≤ 30 | ≤ 30
CCCS(=O)(=O)c1cncc(-c2ccc(C)c(F)c2)c1 [compound 101] |  |  | ≤ 30 | ≤ 30
CCCS(=O)(=O)c1cncc(-c2cc(F)c(F)c(F)c2)c1 [compound 102] |  |  | ≤ 30 | ≤ 30
CCCS(=O)(=O)c1cncc(-c2ccc(Cl)c(F)c2)c1 [compound 103] |  |  | ≤ 30 | ≤ 30
Cc1ccc(-c2cncc(S(=O)(=O)N(C)C)c2)cc1F [compound 104] |  |  | ≤ 30 | ≤ 30
CN(C)S(=O)(=O)c1cncc(-c2cc(F)c(F)c(F)c2)c1 [compound 105] |  |  | ≤ 30 | ≤ 30
CCN(C)S(=O)(=O)c1cncc(-c2ccc(C)c(F)c2)c1 [compound 106] |  |  | ≤ 30 | ≤ 30
CCN(C)S(=O)(=O)c1cncc(-c2cc(F)c(F)c(F)c2)c1 [compound 107] |  |  | ≤ 30 | ≤ 30
CCS(=O)(=O)c1cncc(-c2ccc3ccoc3c2)c1 [compound 108] | ≤ 30 |  | ≤ 30 | 
Cc1ccc(-c2cncc(S(=O)(=O)c3cnccn3)c2)cc1F [compound 135] |  |  |  | ≤ 30
